Experimental data reported in the supplement of paper PMC12819154, “High-throughput peptide-centric local stability assay extends protein–ligand identification to membrane proteins, tissues and bacteria” (Nature Structural & Molecular Biology, 2025).
The list shows a part of the results. Most values lie at the level of the controls, where differences are scatter.

Protein sequences, listed by entry. Tags and fused reporters are not part of them. Lines headed by an entry give the natural chain unless they say otherwise; changes in a name come on top.
UniProt Q8BJY1: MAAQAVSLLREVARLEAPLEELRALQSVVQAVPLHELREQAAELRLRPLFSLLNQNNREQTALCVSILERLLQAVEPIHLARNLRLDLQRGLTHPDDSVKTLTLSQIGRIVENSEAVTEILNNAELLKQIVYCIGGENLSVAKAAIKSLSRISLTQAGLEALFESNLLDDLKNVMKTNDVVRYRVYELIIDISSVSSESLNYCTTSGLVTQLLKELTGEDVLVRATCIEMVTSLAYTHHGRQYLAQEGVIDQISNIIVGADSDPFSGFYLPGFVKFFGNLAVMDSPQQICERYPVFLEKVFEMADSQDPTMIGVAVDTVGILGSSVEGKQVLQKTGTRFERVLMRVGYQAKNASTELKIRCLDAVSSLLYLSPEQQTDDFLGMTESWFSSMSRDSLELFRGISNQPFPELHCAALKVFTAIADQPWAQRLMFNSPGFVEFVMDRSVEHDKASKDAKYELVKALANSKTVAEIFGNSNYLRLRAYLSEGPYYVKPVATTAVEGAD
UniProt Q8BP78: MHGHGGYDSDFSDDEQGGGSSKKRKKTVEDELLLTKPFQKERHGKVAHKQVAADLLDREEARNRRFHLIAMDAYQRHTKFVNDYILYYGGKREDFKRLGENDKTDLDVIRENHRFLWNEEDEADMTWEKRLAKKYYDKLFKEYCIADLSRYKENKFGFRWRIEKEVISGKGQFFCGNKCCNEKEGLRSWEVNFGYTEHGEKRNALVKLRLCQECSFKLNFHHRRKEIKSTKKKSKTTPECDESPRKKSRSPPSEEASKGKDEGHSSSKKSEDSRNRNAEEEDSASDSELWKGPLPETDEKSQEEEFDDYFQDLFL
UniProt Q8BSM7: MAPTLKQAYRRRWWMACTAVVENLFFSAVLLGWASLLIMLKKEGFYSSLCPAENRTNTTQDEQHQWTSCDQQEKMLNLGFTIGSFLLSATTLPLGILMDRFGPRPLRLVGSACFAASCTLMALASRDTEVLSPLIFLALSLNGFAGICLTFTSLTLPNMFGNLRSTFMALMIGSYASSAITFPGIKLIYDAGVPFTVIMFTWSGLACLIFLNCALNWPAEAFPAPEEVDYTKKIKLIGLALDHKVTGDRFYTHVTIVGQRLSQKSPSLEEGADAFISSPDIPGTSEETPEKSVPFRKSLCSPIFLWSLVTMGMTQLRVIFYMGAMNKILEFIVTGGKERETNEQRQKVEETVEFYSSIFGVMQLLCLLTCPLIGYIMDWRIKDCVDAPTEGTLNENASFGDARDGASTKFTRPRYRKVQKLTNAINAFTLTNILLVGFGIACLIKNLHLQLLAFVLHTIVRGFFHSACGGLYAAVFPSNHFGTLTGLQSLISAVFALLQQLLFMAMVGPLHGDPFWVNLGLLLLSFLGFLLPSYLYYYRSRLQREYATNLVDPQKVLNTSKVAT
UniProt Q8BKE9: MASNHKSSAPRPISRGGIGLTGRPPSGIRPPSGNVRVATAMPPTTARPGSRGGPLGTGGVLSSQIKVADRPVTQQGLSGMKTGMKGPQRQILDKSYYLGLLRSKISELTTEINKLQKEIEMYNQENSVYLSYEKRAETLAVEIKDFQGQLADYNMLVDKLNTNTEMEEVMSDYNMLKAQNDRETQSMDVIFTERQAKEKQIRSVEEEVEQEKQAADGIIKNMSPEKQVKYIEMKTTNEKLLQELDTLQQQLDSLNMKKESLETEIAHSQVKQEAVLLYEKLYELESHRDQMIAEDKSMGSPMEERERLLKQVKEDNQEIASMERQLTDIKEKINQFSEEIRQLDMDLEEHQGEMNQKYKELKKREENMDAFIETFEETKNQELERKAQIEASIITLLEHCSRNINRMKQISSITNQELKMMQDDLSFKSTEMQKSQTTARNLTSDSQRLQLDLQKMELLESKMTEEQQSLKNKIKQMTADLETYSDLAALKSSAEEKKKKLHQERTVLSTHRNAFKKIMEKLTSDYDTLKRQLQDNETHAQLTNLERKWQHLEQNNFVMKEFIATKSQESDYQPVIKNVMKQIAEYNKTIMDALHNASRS
UniProt Q8BLK9: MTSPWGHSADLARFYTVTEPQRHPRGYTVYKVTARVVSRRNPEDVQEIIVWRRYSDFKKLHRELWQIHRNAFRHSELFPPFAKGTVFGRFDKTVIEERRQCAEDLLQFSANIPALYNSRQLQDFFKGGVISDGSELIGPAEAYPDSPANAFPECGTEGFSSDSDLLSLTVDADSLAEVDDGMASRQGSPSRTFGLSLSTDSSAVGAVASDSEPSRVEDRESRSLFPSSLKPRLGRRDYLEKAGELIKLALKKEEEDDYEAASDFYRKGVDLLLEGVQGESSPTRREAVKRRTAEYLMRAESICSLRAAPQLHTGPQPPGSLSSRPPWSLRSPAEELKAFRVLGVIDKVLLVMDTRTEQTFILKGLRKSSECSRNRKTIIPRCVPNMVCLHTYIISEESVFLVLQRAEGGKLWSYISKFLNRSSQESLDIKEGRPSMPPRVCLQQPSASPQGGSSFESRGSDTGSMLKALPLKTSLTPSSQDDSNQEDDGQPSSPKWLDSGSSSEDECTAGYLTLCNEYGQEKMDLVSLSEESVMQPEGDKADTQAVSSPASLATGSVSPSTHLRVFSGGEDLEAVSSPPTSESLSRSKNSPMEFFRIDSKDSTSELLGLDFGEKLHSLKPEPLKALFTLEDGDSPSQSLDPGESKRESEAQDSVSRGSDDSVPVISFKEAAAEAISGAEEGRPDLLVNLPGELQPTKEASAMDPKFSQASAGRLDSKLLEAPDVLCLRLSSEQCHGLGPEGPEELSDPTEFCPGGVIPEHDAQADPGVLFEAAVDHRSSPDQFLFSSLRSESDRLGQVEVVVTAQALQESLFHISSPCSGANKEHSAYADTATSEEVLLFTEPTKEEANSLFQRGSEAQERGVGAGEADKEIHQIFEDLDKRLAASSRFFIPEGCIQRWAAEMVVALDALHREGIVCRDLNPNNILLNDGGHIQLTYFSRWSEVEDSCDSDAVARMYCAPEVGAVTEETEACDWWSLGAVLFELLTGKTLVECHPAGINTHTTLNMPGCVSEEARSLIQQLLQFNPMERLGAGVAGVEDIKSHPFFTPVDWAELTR
UniProt Q8BP40: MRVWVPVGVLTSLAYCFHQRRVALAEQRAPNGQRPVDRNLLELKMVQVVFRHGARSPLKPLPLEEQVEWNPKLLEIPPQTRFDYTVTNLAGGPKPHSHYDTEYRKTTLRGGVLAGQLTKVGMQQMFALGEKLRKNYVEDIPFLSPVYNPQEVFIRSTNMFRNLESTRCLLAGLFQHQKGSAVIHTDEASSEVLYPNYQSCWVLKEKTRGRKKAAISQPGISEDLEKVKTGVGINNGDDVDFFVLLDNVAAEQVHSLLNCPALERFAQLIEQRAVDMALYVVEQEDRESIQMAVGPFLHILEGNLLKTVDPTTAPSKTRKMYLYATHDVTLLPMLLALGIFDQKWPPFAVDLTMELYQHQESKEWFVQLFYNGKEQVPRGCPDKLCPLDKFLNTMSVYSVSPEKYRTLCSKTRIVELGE
UniProt Q8BTI8: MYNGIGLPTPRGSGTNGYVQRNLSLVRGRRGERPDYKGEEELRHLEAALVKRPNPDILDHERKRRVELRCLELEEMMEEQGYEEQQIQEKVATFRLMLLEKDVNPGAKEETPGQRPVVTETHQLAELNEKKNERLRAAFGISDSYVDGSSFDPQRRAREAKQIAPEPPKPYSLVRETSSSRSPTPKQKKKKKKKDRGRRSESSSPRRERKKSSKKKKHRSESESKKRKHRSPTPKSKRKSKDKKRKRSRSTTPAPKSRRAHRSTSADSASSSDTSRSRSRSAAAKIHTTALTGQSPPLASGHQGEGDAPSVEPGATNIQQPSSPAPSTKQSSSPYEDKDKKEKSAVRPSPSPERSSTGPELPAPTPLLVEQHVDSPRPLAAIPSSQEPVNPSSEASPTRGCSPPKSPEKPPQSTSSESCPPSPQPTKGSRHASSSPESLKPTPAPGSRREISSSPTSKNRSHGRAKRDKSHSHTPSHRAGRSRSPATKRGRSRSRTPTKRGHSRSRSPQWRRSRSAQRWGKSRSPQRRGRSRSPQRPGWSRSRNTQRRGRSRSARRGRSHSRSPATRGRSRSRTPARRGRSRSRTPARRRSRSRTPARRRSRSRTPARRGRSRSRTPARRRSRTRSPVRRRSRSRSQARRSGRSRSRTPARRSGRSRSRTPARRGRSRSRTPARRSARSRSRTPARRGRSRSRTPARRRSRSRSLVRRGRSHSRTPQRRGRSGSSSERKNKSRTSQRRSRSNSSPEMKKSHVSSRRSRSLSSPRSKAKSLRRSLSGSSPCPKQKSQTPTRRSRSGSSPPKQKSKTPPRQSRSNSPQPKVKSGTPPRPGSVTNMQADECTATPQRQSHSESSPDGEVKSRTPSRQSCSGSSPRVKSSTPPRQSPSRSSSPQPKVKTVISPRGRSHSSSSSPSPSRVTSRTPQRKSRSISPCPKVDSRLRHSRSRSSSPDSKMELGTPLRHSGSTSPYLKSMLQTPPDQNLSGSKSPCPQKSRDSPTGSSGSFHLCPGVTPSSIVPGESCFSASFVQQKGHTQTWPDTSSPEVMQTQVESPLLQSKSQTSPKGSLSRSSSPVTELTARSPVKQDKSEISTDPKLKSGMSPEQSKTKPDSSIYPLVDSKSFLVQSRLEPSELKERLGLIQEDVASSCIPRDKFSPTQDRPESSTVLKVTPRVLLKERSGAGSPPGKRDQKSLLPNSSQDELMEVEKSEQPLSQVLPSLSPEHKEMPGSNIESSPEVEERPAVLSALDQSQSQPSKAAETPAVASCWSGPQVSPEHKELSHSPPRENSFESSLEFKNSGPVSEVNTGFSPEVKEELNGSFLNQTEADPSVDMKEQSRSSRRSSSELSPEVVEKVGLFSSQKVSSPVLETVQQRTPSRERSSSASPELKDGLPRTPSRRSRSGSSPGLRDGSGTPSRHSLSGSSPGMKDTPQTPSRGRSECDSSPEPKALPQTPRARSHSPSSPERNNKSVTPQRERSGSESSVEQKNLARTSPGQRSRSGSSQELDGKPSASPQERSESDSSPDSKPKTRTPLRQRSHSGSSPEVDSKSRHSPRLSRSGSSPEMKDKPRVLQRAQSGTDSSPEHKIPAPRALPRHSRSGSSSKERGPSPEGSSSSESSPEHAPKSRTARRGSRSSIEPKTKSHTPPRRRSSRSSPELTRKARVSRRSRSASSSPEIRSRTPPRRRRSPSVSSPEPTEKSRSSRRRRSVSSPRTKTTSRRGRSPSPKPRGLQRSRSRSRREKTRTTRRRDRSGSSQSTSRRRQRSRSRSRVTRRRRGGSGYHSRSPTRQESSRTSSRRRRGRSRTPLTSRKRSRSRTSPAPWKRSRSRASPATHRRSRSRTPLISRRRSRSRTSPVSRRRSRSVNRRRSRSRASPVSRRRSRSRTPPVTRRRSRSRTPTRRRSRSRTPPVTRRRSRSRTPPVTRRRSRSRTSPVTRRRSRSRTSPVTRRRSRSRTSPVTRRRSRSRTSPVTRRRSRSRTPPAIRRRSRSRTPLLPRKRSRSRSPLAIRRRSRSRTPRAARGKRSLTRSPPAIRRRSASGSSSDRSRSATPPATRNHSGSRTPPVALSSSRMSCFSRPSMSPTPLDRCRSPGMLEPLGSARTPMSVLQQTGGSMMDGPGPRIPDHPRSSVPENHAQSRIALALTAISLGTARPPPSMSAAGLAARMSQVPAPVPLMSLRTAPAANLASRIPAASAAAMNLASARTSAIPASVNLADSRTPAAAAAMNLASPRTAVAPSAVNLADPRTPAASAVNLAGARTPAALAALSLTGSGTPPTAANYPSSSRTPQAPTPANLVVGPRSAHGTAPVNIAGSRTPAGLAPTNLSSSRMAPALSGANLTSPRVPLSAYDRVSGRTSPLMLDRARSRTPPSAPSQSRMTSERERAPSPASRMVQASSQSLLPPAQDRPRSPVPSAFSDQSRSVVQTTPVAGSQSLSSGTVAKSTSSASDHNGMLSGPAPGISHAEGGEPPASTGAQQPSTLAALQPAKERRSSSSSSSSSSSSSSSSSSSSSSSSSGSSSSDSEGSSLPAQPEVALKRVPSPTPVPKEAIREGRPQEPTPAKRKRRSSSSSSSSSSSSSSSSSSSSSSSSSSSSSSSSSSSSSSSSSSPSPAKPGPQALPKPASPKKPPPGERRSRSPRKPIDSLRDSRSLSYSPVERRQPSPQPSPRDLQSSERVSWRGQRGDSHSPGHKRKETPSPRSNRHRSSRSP

compound: CN[C@@H]1C[C@H]2O[C@@](C)([C@@H]1OC)n1c3ccccc3c3c4c(c5c6ccccc6n2c5c31)C(=O)NC4 [staurosporine]; experiment: log2 fold change of tryptic peptide abundance, ligand vs vehicle (limited proteolysis) (log2 ratio); higher = more trypsin-susceptible (destabilized); details: ligand concentration: 20 uM; sample: mouse liver crude lysate; replicate design: treated separately

Row | Target | log2 fold change
1 | UniProt Q8BJY1 (peptide sequence: ELTGEDVLVR, peptide start residue: 215) | -0.259
2 | UniProt Q8BJM3 (peptide sequence: DMDCWEVQTAGATGHWR, peptide start residue: 145) | 0.577
3 | UniProt Q8BP78 (peptide sequence: LGENDKTDLDVIR, peptide start residue: 98) | -0.181
4 | UniProt Q8BSM7 (peptide sequence: LIGLALDHK, peptide start residue: 236) | -0.0789
5 | UniProt Q8BKE9 (peptide sequence: EDNQEIASMER, peptide start residue: 314) | -0.178
6 | UniProt Q8BLK9 (peptide sequence: AAPQLHTGPQPPGSLSSRPPWSLR, peptide start residue: 307) | -0.261
7 | UniProt Q8BMG1 (peptide sequence: RLDGLPNSPIRK, peptide start residue: 90) | -0.333
8 | UniProt Q8BP40 (peptide sequence: MVQVVFR, peptide start residue: 45) | 0.158
9 | UniProt Q8BMD5 (peptide sequence: FGELEGVRK, peptide start residue: 461) | 0.786
10 | UniProt Q8BTI8 (peptide sequence: MVQASSQSLLPPAQDRPR, peptide start residue: 2386) | -0.409
11 | UniProt Q8BK03 (peptide sequence: WLSDSFK, peptide start residue: 460) | 0.241
